# Test results as given in the supplement of paper PMC3334620.
# Whole data set: some 33,000 sequences, median “E-score (-0.5 to 0.5)” near -0.0034, cut for the highest 2% near 0.25. The list shows a part of the results.
# Target: T1, Yap3 (UniProt P38749)
# T1 sequence: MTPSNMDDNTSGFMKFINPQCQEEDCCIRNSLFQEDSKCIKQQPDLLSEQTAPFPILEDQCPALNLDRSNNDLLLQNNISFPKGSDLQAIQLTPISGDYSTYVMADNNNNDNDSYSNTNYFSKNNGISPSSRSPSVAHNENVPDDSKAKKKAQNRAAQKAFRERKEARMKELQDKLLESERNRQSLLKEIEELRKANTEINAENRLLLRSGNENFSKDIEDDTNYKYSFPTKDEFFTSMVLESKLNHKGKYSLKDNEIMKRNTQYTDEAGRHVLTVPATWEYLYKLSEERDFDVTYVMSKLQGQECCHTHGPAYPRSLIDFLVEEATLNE
# Assay: PBM E-score (8-mer binding enrichment) (E-score (-0.5 to 0.5)); higher = stronger / more preferred TF binding
# Conditions: protein concentration: 100 nM; construct: GST-full length
# How it was run: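 Masliner-normalised scans of fluorescent anti-GST signal were the basis for scoring. That signal came from GST-tagged yeast transcription factors applied at about 100-200 nM to double-stranded universal all-10-mer Agilent arrays on fresh or once-stripped slides. Each ungapped eight-base word, pooled with its reverse complement, received an E-score from the Universal PBM Analysis Suite.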
row,Sequence,PBM E-score
1,CGAAGAAA,0.136
2,GCTGTTTA,0.142
3,GATCCACA,-0.0248
4,AAATTCCG,0.205
5,TGCCGGAA,-0.0251
6,CCTCTCCA,-0.372
7,CAGAATGC,0.0227
8,AGCCGGTC,-0.191
9,ACACTATC,0.165
10,GACGACTA,-0.0185
11,TCACACCA,0.0958
12,CGTAGTGC,-0.0356
13,CCGTGGTC,-0.202
14,GGAAGCCA,-0.193
15,CCGCACCA,-0.164
16,CAGATAGA,-0.0499
17,CCGAGCAA,-0.0253
18,GATATGCC,-0.0864
19,CGAGAACA,-0.0697
20,CCCCAGTA,-0.148
21,GTCTTAAC,0.0396
22,CAATTTAC,0.175
23,CCGGGAGA,-0.159
24,ATAGGCTC,-0.00307
25,CCAAGAGC,-0.103

row,Sequence,PBM E-score
1,CCGAAACG,-0.136
2,ACGCCCCA,-0.0847
3,CTTCTTGC,0.1
4,CGGCGGAC,-0.176
5,GGGAAGCA,-0.178
6,ACACTGGC,-0.0732
7,CGCCAGCC,-0.134
8,ACAGTTCC,-0.00592
9,AAGACAAT,0.204
10,CCTTCTAC,0.0294
11,AATGTACG,-0.0174
12,AGTATAGA,0.149
13,CGCGGCCG,-0.236
14,GTGCTTCA,0.155
15,AATGCCCA,-0.0376
16,GCAACTGC,0.0795
17,CCAGAGAA,0.0294
18,ACTTGGGG,-0.104
19,GACAAACC,0.0467
20,CAAAAAAC,0.151
21,ACAATAAG,0.0953
22,GCCCATTA,-0.0925
23,ATCTCGGC,-0.0346
24,CGTTCCAG,-0.0295
25,TACAGAGA,-0.0777

row,Sequence,PBM E-score
1,AGCTTACT,0.0983
2,TACGAAGA,0.107
3,AGCTTAGA,0.109
4,AGGTGATA,0.0445
5,CGTCAACA,0.0161
6,CAAGAGTG,-0.0802
7,CACCCGGG,-0.216
8,CCAGAAAG,-0.0181
9,AAGGCAGC,-0.0167
10,ACATATTG,0.11
11,CGGGAGCC,-0.193
12,CCTGTCCG,-0.0639
13,ACCCAAAG,-0.117
14,GTGTAGCA,-0.109
15,CCTGCTTC,-0.175
16,CATATGCA,0.118
17,GTGCAAAC,-0.0512
18,GGAAGGCC,-0.374
19,CATAATGA,0.118
20,GGGCCCGA,-0.255
21,CCTTGTAG,-0.276
22,ATTCGGAG,0.00518
23,TATTTACA,0.158
24,CTCCCCCC,-0.293
25,ATCGACTG,0.0906

row,Sequence,PBM E-score
1,AGCTCTTC,0.0209
2,GAAGTCAC,-0.126
3,CTCTCAAG,-0.0909
4,ATTGTGCA,0.164
5,ATCAATCG,0.146
6,CCGGGCAC,-0.3
7,AGGCACCC,-0.188
8,CAGCAACA,0.208
9,CGATGGTC,-0.111
10,AACGGGTG,-0.00393
11,CCCCGGCG,-0.254
12,ACCCGCTG,-0.175
13,CTCCGACC,-0.292
14,AAAGCTCC,-0.102
15,AACACTCC,-0.0127
16,AACGTAGA,0.169
17,CTCTTGCC,-0.0695
18,ATCCGCAA,-0.00691
19,CAACTCCG,-0.073
20,AGCTAAGC,-0.223
21,AATTTGTC,0.138
22,ATGCTCTA,-0.128
23,CGGGTGAG,-0.136
24,TATAAGAA,0.0736
25,CCTGCCAC,-0.111

# Quoted at random: 3 records from the list.
row,Sequence,PBM E-score
1,AGCTCTTC,0.0209
12,ACCCGCTG,-0.175
25,CCTGCCAC,-0.111

# The listing continues:

row,Sequence,PBM E-score
1,TCCGACAA,0.0797
2,CTTTTCGC,0.0914
3,TCAAAACA,0.194
4,CGGTGTCA,-0.141
5,ACTAGATG,0.0209
6,GAATGAAA,0.157
7,CTTATAAG,0.0276
8,CATTCGAA,0.161
9,ATGGTCTG,-0.00164
10,GATGGGAC,-0.196
11,GATGTAAC,0.0665
12,ATTCGTTG,0.17
13,GCTTACCC,-0.0567
14,AAGTATGC,-0.046
15,ATATTTCG,0.141
16,AAACGGGC,0.0931
17,TCACTCAA,0.00948
18,ATGCCGTC,-0.0725
19,GCTTAATA,0.17
20,CCTTGCAA,-0.059
21,GCTGTGAA,0.101
22,TATGCTCA,0.159
23,ATGTCCAA,0.0696
24,TGCGTAAA,0.132
25,AGTAGTCG,-0.00146

row,Sequence,PBM E-score
1,ATTCAAAC,0.109
2,ACGGGAGA,-0.0795
3,ACAGGTTA,0.00932
4,CCCAACCA,-0.0429
5,AATTTTAT,0.266
6,CACCATTC,-0.0305
7,ACCAATGA,0.0693
8,AGGAGTAC,-0.0964
9,ACCGGGAC,-0.162
10,GTGACGAA,0.0395
11,CCCAAGGG,-0.327
12,AATAAGAG,0.195
13,AGTCCGAA,-0.0167
14,ATAGTTGG,0.00071
15,CCCCACCG,-0.223
16,GATATTGC,0.0968
17,CGGGCATC,-0.172
18,CGGAAGTA,0.00202
19,GATAATAA,0.113
20,CCGTAGAG,-0.111
21,ATGCCCAG,-0.24
22,CGCTAAAC,-0.0491
23,CAGTAAGC,0.0593
24,AGGTGCCG,-0.101
25,GCCGAAGC,-0.186

# Part of the list above, reformatted:
row	Sequence	PBM E-score
7	ACCAATGA	0.0693
8	AGGAGTAC	-0.0964
9	ACCGGGAC	-0.162
10	GTGACGAA	0.0395

# Continuation:

row,Sequence,PBM E-score
1,AATTCATC,-0.0039
2,GTTCACCA,-0.0756
3,GCGAAGAC,-0.0705
4,CGTTCTTC,0.0864
5,GAAAACCC,-0.0324
6,AATGAGCA,-0.00708
7,AGCCCCAG,-0.212
8,ATACGTCA,0.0839
9,AAACTTGC,0.0571
10,ATGTTCTA,0.11
11,ACCTCCCA,-0.215
12,AGCGGTCG,-0.334
13,AAAGGTGT,-0.1
14,CAGGACTC,-0.189
15,AATTGACT,0.162
16,CCCCAGAG,-0.379
17,ACCCACTC,-0.167
18,AAGGCATT,-0.147
19,CCTTATTA,0.33
20,CGTGTCAC,-0.0465
21,GACGACGC,-0.186
22,ATCGGCCA,-0.142

# 5 successive records already listed:
row,Sequence,PBM E-score
1,AATTCATC,-0.0039
2,GTTCACCA,-0.0756
3,GCGAAGAC,-0.0705
4,CGTTCTTC,0.0864
5,GAAAACCC,-0.0324
